Consider one compound from PMC3718762, “Differential Disruption of EWS-FLI1 Binding by DNA-Binding Agents” (PLoS ONE, 2013).

The target in the experiment is EWS-FLI1. The experiment in a line: AlphaScreen proximity assay, binding of recombinant EWS-FLI1 to cognate DNA oligo. The following applies: read-out: IC50 EWS-FLI1, disruption of recombinant EWS-FLI1 binding to DNA. On the technique in general: Bead proximity is the source of the signal in Alpha formats.

Structures are written as SMILES. Counter-ions that a name gives are not always drawn.

One may read the IC50 as the midpoint of a concentration-inhibition curve. In the case of `CCCCc1oc2ccccc2c1C(=O)c1cc(I)c(OCCN(CC)CC)c(I)c1` [Amiodarone HCl], the IC50 was determined as 5.36 µM.
